Data as given in PubChem BioAssay AID1259254 (NCATS, 2017)
The deposit covers about 59,000 reagents; shown is an unselected part. About 1,550 of all reagents (2.6%) were called active. 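G2 share is only a proxy for re-replication; each gene was hit by three separate siRNAs, and active genes were retested.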 Entries without a mark were called inactive. The numbers tell different reagents against one gene apart. Not all columns of the deposit are shown. Not stated in the record: the amount of reagent.

- Screen: 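Genome-wide screen for genes that prevent DNA re-replication in cancer cells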 (primary screen)
- Cell system: human HCT116 colorectal cancer cells
- Reagents: single siRNA against human genes
- Timing: 3 days
- Read-out: 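Imaged Hoechst DNA stain sorts each cell into a cycle phase by DNA amount; per plate, G2 fraction set to 0% for non-targeting and 100% for GMNN siRNA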
- Reading the numbers: G2 robust z-score and G2 cells, % of GMNN control: higher = more G2 cells, more excess DNA replication
- Hit rule: 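An siRNA counts as active if its G2 robust z-score lies at least 5 MADs above the screen median; here such calls match roughly 38% of GMNN control or more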

{"gene symbol":"HDHD5 (GeneID 27440)","siRNA no.":1,"G2 robust z-score":1.07,"G2 cells, % of GMNN control":10.5}
{"gene symbol":"HDHD5 (GeneID 27440)","siRNA no.":2,"G2 robust z-score":0.305,"G2 cells, % of GMNN control":5.12}
{"gene symbol":"HDHD5 (GeneID 27440)","siRNA no.":3,"G2 robust z-score":-0.708,"G2 cells, % of GMNN control":-2.01}
{"gene symbol":"NAGK (GeneID 55577)","siRNA no.":1,"G2 robust z-score":-0.337,"G2 cells, % of GMNN control":0.598}
{"gene symbol":"NAGK (GeneID 55577)","siRNA no.":2,"G2 robust z-score":-1.25,"G2 cells, % of GMNN control":-5.85}
{"gene symbol":"NAGK (GeneID 55577)","siRNA no.":3,"G2 robust z-score":-1.15,"G2 cells, % of GMNN control":-5.13}
{"gene symbol":"LINC00471 (GeneID 151477)","siRNA no.":1,"G2 robust z-score":-0.385,"G2 cells, % of GMNN control":0.262}
{"gene symbol":"LINC00471 (GeneID 151477)","siRNA no.":2,"G2 robust z-score":-0.425,"G2 cells, % of GMNN control":-0.026}
{"gene symbol":"LINC00471 (GeneID 151477)","siRNA no.":3,"G2 robust z-score":-0.16,"G2 cells, % of GMNN control":1.84}
{"gene symbol":"ADGRF2P (GeneID 222611)","siRNA no.":1,"G2 robust z-score":0.836,"G2 cells, % of GMNN control":8.85}
{"gene symbol":"ADGRF2P (GeneID 222611)","siRNA no.":2,"G2 robust z-score":0.394,"G2 cells, % of GMNN control":5.74}
{"gene symbol":"ADGRF2P (GeneID 222611)","siRNA no.":3,"G2 robust z-score":-0.59,"G2 cells, % of GMNN control":-1.18}
{"gene symbol":"NDUFV3 (GeneID 4731)","siRNA no.":1,"G2 robust z-score":1.6,"G2 cells, % of GMNN control":14.2}
{"gene symbol":"NDUFV3 (GeneID 4731)","siRNA no.":2,"G2 robust z-score":-0.758,"G2 cells, % of GMNN control":-2.37}
{"gene symbol":"NDUFV3 (GeneID 4731)","siRNA no.":3,"G2 robust z-score":-0.911,"G2 cells, % of GMNN control":-3.44}
{"gene symbol":"MRPS18C (GeneID 51023)","siRNA no.":1,"G2 robust z-score":0.884,"G2 cells, % of GMNN control":9.19}
{"gene symbol":"MRPS18C (GeneID 51023)","siRNA no.":2,"G2 robust z-score":1,"G2 cells, % of GMNN control":10}
{"gene symbol":"MRPS18C (GeneID 51023)","siRNA no.":3,"G2 robust z-score":-1.16,"G2 cells, % of GMNN control":-5.22}
{"gene symbol":"H4C5 (GeneID 8367)","siRNA no.":1,"G2 robust z-score":-0.424,"G2 cells, % of GMNN control":-0.0131}
{"gene symbol":"H4C5 (GeneID 8367)","siRNA no.":2,"G2 robust z-score":-0.192,"G2 cells, % of GMNN control":1.62}
{"gene symbol":"H4C5 (GeneID 8367)","siRNA no.":3,"G2 robust z-score":-0.219,"G2 cells, % of GMNN control":1.43}
{"gene symbol":"RPS6KA2 (GeneID 6196)","siRNA no.":1,"G2 robust z-score":0.433,"G2 cells, % of GMNN control":6.01}
{"gene symbol":"RPS6KA2 (GeneID 6196)","siRNA no.":2,"G2 robust z-score":-0.668,"G2 cells, % of GMNN control":-1.74}
{"gene symbol":"RPS6KA2 (GeneID 6196)","siRNA no.":3,"G2 robust z-score":0.92,"G2 cells, % of GMNN control":9.44}
